The list shows only some results of the screen, not a fair sample: it gathers tests that were run many times, whatever their T/C, doses with no T/C, and many T/C values between a quarter and a half above the control. Further doses and runs are listed elsewhere. T/C: endpoint of the treated group in % of that of the vehicle group. Some entries give survivors of the animals treated and no T/C: the source files T/C as zero there, which appears to mark a toxic dose or a test without result, not a measured value. Some doses without a T/C left all or most animals alive at the check, yet need not have been tolerated: survival well below the control is almost never listed, so the zero probably covers shortened survival too. Survivors were counted at the toxicity check, usually on the fifth day, unless a day is given; later deaths do not show. Schedules are NCI's codes, taken here to give the interval after Q, in days (D) or hours (H), and the number of doses after X. Some structures stand for samples that the source files as different forms (salt, stereo form or complex); doses refer to the form tested. Some doses were run more than once; their values stand side by side, smallest first. Where survival is the endpoint, the PubChem record calls one and a half times the control and up active, and a quarter to a half above the control has no call in these data; cut-offs in other NCI protocols can differ. Some T/C values carry the count of animals alive at the toxicity check (mostly the fifth day); where none is given, no animal had died by that day. Additions like (4×) stand for listed records that agree.
System: CD2F1 mice, L1210 leukemia ip, survival T/C
Experiment: NCI In Vivo Anticancer Drug Screen. Data for tumor model L1210 Leukemia (intraperitoneal) in CD2F1 (CDF1) mice
Details: higher T/C = longer survival
In short: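 Tumor-bearing mice (transplanted tumor) were split into treated and vehicle control groups, and the measured endpoint of each treated group was divided by that of its vehicle controls.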

[1] = T/C endpoint: mean survival time, dose: 100.0 mg/kg/injection, schedule: Q01DX009 (ip), vehicle: other
[2] = T/C endpoint: mean survival time, dose: 200.0 mg/kg/injection, schedule: Q01DX009 (ip), vehicle: saline with Tween-80
[3] = T/C endpoint: mean survival time, dose: 200.0 mg/kg/injection, schedule: Q04DX003 (ip), vehicle: saline with Tween-80
[4] = T/C endpoint: mean survival time, dose: 400.0 mg/kg/injection, schedule: Q04DX003 (ip), vehicle: saline with Tween-80
[5] = T/C endpoint: mean survival time, dose: 400.0 mg/kg/injection, schedule: Q01DX009 (ip), vehicle: saline with Tween-80
[6] = T/C endpoint: mean survival time, dose: 100.0 mg/kg/injection, schedule: Q04DX003 (ip), vehicle: saline with Tween-80
[7] = T/C endpoint: mean survival time, dose: 200.0 mg/kg/injection, schedule: Q01DX009 (ip), vehicle: saline
[8] = T/C endpoint: median survival time, dose: 200.0 mg/kg/injection, schedule: Q01DX009 (ip), vehicle: acid diluted with saline
[9] = T/C endpoint: median survival time, dose: 166.7 mg/kg/injection, schedule: Q01DX009 (ip), vehicle: water
[10] = T/C endpoint: mean survival time, dose: 3.13 mg/kg/injection, schedule: Q01DX009 (ip), vehicle: Klucel (hydroxypropylcellulose) (HPC)

## c1ccc(CN(c2ccccc2)C2CCCCC2)cc1
T/C endpoint: mean survival time, dose: 400.0 mg/kg/injection, schedule: Q04DX003 (ip), vehicle: Klucel (hydroxypropylcellulose) (HPC)
  survivor count: 3 of 3

## O=C1CC=C2C3CC4N(CCC45c4cc(O)c(O)cc4N1C25)C/C3=C\CBr (centres undefined)
T/C endpoint: mean survival time, dose: 150.0 mg/kg/injection, schedule: Q01DX001 (ip), vehicle: saline
  survivor count: 2 of 6
T/C endpoint: mean survival time, dose: 300.0 mg/kg/injection, schedule: Q01DX001 (ip), vehicle: saline
  survivor count: 1 of 6

## CCOC/C(O)=C(\C#N)c1cccc(Cl)c1
T/C endpoint: mean survival time, dose: 100.0 mg/kg/injection, schedule: Q01DX001 (ip), vehicle: other
  survivor count: 3 of 6
T/C endpoint: mean survival time, dose: 400.0 mg/kg/injection, schedule: Q01DX001 (ip), vehicle: other
  survivor count: 0 of 6

## OCC1OC(n2cnc3c([Se]Cc4ccccc4)ncnc32)C(O)C1O (centres undefined)
T/C endpoint: mean survival time, dose: 100.0 mg/kg/injection, schedule: Q01DX005 (ip), vehicle: saline
  survivor count: 0 of 6
T/C endpoint: mean survival time, dose: 200.0 mg/kg/injection, schedule: Q01DX005 (ip), vehicle: saline
  survivor count: 0 of 6

## CCCC(=O)c1cccc([N+](=O)[O-])c1
[1]
  T/C: 94, 98, 103 (2×), 112 % of control
T/C endpoint: mean survival time, dose: 200.0 mg/kg/injection, schedule: Q01DX009 (ip), vehicle: other
  T/C: 97, 101, 103, 108, 113 % of control
T/C endpoint: mean survival time, dose: 400.0 mg/kg/injection, schedule: Q01DX009 (ip), vehicle: other
  T/C: 97 (3×), 104 [5 of 6 alive], 133 % of control

## CC[N+](C)(CC)Cc1ccc([NH-])c([NH-])c1.[Cl][Pt+2][Cl]
T/C endpoint: mean survival time, dose: 25.0 mg/kg/injection, schedule: Q04DX003 (ip), vehicle: water
  survivor count: 0 of 6
T/C endpoint: mean survival time, dose: 50.0 mg/kg/injection, schedule: Q04DX003 (ip), vehicle: water
  survivor count: 0 of 6
T/C endpoint: mean survival time, dose: 100.0 mg/kg/injection, schedule: Q04DX003 (ip), vehicle: water
  survivor count: 0 of 6
T/C endpoint: mean survival time, dose: 200.0 mg/kg/injection, schedule: Q04DX003 (ip), vehicle: water
  survivor count: 0 of 6

## CCOC(=O)C(Br)(Br)C(=O)OCC
T/C endpoint: mean survival time, dose: 50.0 mg/kg/injection, schedule: Q01DX009 (ip), vehicle: saline with Tween-80
  survivor count: 2 of 3
T/C endpoint: mean survival time, dose: 100.0 mg/kg/injection, schedule: Q01DX009 (ip), vehicle: saline with Tween-80
  survivor count: 1 of 3
[2]
  survivor count: 0 of 3

## C=CCOCC(O)CN(CCCC)CCCC (centres undefined)
[3]
  survivor count: 0 of 6
[4]
  survivor count: 0 of 6

## [O]=[Mo]
T/C endpoint: mean survival time, dose: 200.0 mg/kg/injection, schedule: Q04DX003 (ip), vehicle: saline
  survivor count: 4 of 6
T/C endpoint: mean survival time, dose: 400.0 mg/kg/injection, schedule: Q04DX003 (ip), vehicle: saline
  survivor count: 1 of 6

## Cc1nc(C(=O)O)c(C(=O)O)[nH]1
[5]
  survivor count: 0 of 6
[4]
  survivor count: 2 of 6

## Nc1nc(NCCCc2ccccc2)cc(=O)[nH]1
[6]
  survivor count: 0 of 6
[3]
  survivor count: 0 of 6
[4]
  survivor count: 0 of 6

## CC(=O)C1C(=O)OC2(C)C(=O)C3=COC(/C=C\C(C)=C/C(C)C)=CC3=CC12 (centres undefined)
[6]
  survivor count: 6 of 6

## COc1cc2c(cc1OC)C(OC)N(C)c1c-2ccc2cc3c(cc12)OCO3 (centres undefined)
T/C endpoint: mean survival time, dose: 50.0 mg/kg/injection, schedule: Q01DX009 (ip), vehicle: water
  survivor count: 2 of 6

## Oc1ccccc1C=NC1CCCCC1N=Cc1ccccc1O.[Cu] (centres undefined)
T/C endpoint: mean survival time, dose: 50.0 mg/kg/injection, schedule: Q04DX002 (ip), vehicle: saline with Tween-80
  survivor count: 3 of 3

## O=C(SCCNCCNC1CC2CCC1C2)c1ccccc1 (centres undefined)
T/C endpoint: mean survival time, dose: 75.0 mg/kg/injection, schedule: Q01DX001 (ip), vehicle: saline
  survivor count: 0 of 6

## CCOC(=O)c1ccc(NC/C(CN)=N/O)cc1
T/C endpoint: mean survival time, dose: 300.0 mg/kg/injection, schedule: Q01DX001 (ip), vehicle: other
  survivor count: 6 of 6

## CCC1CCC(NC(=O)NC)CC1 (centres undefined)
[4]
  survivor count: 4 of 6

## CN(C)N=Nc1ccc(SC#N)cc1C(N)=O
T/C endpoint: mean survival time, dose: 300.0 mg/kg/injection, schedule: Q01DX009 (ip), vehicle: Klucel (hydroxypropylcellulose) (HPC)
  survivor count: 2 of 6 and 3 of 6

## O=C1OCCN1NCc1ccc(Cl)cc1
T/C endpoint: mean survival time, dose: 200.0 mg/kg/injection, schedule: Q01DX009 (ip), vehicle: DMSO
  survivor count: 2 of 6

## CCOC(=O)c1c[nH]c2oc(/C=N/N3CC(CN4CCOCC4)OC3=O)cc2c1=O (centres undefined)
[1]
  T/C: 136 % of control
T/C endpoint: mean survival time, dose: 100.0 mg/kg/injection, schedule: Q01DX009 (ip), vehicle: saline
  T/C: 125 and 126 % of control [5 of 6 alive]
[2]
  T/C: 148 % of control
[7]
  T/C: 143 % of control
T/C endpoint: median survival time, dose: 100.0 mg/kg/injection, schedule: Q01DX009 (ip), vehicle: acid diluted with saline
  T/C: 125 % of control
T/C endpoint: median survival time, dose: 200.0 mg/kg/injection, schedule: Q01DX005 (ip), vehicle: other
  T/C: 137 % of control
[8]
  T/C: 144 % of control
  survivor count: 3 of 5
T/C endpoint: median survival time, dose: 400.0 mg/kg/injection, schedule: Q01DX009 (ip), vehicle: acid diluted with saline
  survivor count: 5 of 6
T/C endpoint: median survival time, dose: 800.0 mg/kg/injection, schedule: Q01DX005 (ip), vehicle: other
  survivor count: 5 of 6

## CN1CCN(CN2C(=O)C3C4C=CC(C3C2=O)C2C3C(=O)N(CN5CCN(C)CC5)C(=O)C3C42)CC1 (centres undefined)
T/C endpoint: median survival time, dose: 13.8 mg/kg/injection, schedule: Q03HX027 (ip), vehicle: water
  T/C: 126 % of control
T/C endpoint: median survival time, dose: 20.0 mg/kg/injection, schedule: Q03HX027 (ip), vehicle: water
  T/C: 132 % of control
T/C endpoint: median survival time, dose: 21.6 mg/kg/injection, schedule: Q01DX009 (ip), vehicle: water
  T/C: 103, 104, 109, 116 % of control
T/C endpoint: median survival time, dose: 23.0 mg/kg/injection, schedule: Q03HX027 (ip), vehicle: water
  T/C: 141 % of control
T/C endpoint: median survival time, dose: 36.0 mg/kg/injection, schedule: Q01DX009 (ip), vehicle: water
  T/C: 105, 109, 112, 136 % of control
T/C endpoint: median survival time, dose: 41.3 mg/kg/injection, schedule: Q01DX009 (ip), vehicle: water
  T/C: 134 and 147 % of control
T/C endpoint: median survival time, dose: 60.0 mg/kg/injection, schedule: Q01DX009 (ip), vehicle: water
  T/C: 137, 146, 175, 273 % of control
T/C endpoint: median survival time, dose: 63.9 mg/kg/injection, schedule: Q03HX027 (ip), vehicle: water
  survivor count: 5 of 6
T/C endpoint: median survival time, dose: 92.9 mg/kg/injection, schedule: Q03HX027 (ip), vehicle: water
  survivor count: 2 of 6
T/C endpoint: median survival time, dose: 100.0 mg/kg/injection, schedule: Q01DX009 (ip), vehicle: water
  T/C: 92 [5 of 6 alive], 137, 195, 241 % of control
T/C endpoint: median survival time, dose: 106.6 mg/kg/injection, schedule: Q03HX027 (ip), vehicle: water
  survivor count: 0 of 6
T/C endpoint: median survival time, dose: 124.0 mg/kg/injection, schedule: Q01DX009 (ip), vehicle: water
  survivor count: 5 of 6
[9]
  T/C: 256 % of control
  survivor count: 0 of 6 and 4 of 6
T/C endpoint: median survival time, dose: 191.2 mg/kg/injection, schedule: Q01DX009 (ip), vehicle: water
  survivor count: 0 of 6 and 1 of 6
T/C endpoint: median survival time, dose: 268.7 mg/kg/injection, schedule: Q01DX009 (ip), vehicle: water
  survivor count: 0 of 6
T/C endpoint: median survival time, dose: 277.8 mg/kg/injection, schedule: Q01DX009 (ip), vehicle: water
  survivor count: 0 of 6

## CCCN(CCC)CN(CCC)CCC
[7]
  survivor count: 1 of 3

## S=P(N1CC1)(N1CC1)N1CC1.[Cl-].[Cl-].[NH2-].[NH2-].[Pt+4]
[10]
  T/C: 142 % of control
  survivor count: 6 of 6
T/C endpoint: mean survival time, dose: 6.25 mg/kg/injection, schedule: Q01DX009 (ip), vehicle: Klucel (hydroxypropylcellulose) (HPC)
  T/C: 132 [5 of 6 alive] and 143 % of control

## CSc1nc(NC2OC(CO)C(O)C(O)C2O)c(Br)c(=O)n1C (centres undefined)
T/C endpoint: median survival time, dose: 200.0 mg/kg/injection, schedule: Q01DX005 (ip), vehicle: saline with Tween-80
  survivor count: 2 of 6

## CN(C)c1ccc(N=Nc2cccnc2)cc1
T/C endpoint: mean survival time, dose: 400.0 mg/kg/injection, schedule: Q01DX001 (ip), vehicle: saline with Tween-80
  survivor count: 1 of 3

## CC(C)CC(NC(=O)C(C)NC(=O)OCc1ccccc1)C(N)=O (centres undefined)
[2]
  survivor count: 6 of 6
[5]
  survivor count: 6 of 6
